The list is a part of this screen's results and no random one: it gathers tests that were run many times, whatever their T/C, doses with no T/C, and many T/C values between a quarter and a half above the control. Further doses and runs are listed elsewhere. T/C is the treated group as % of the vehicle group. Some entries give survivors of the animals treated and no T/C: the source files T/C as zero there, which appears to mark a toxic dose or a test without result, not a measured value. Some survivor counts are full or nearly so, which does not show that the dose was tolerated: the source hardly ever lists a survival T/C far under the control, and the zero likely stands for such cases as well. Counts of survivors are from the toxicity check (mostly the fifth day) where no day follows; animals may have died later. Schedule codes are those of the source, taken here to give the interval after Q, in days (D) or hours (H), and the number of doses after X. Counts like (3×) stand for listed records that agree. Some doses were run more than once; their values stand side by side, smallest first. For survival time, the PubChem record calls one and a half times the control and up active, and a quarter to a half above the control has no call in these data; cut-offs in other NCI protocols can differ. Some T/C values are followed by the survivors on the day toxicity was checked, most often the fifth; without a count, all were alive then. Where a SMILES comes first, the peptide text is derived from it.
Tested on: B6C3F1 mice, B16 melanoma ip, median survival T/C
Assay: NCI In Vivo Anticancer Drug Screen. Data for tumor model B16 Melanoma (intraperitoneal) in B6C3F1 mice
Conditions: T/C endpoint: median survival time, higher T/C = longer survival
Procedure: The antitumor activity of compounds was measured in mice bearing transplantable tumors. Survival or tumor size were measured and the results are expressed as the measurement made in the treated group (T) divided by the measurement made in the vehicle treated control group (C). The tumor model used in this assay is B16 Melanoma (intraperitoneal) in B6C3F1 mice

[1] = dose: 50.0 mg/kg/injection, schedule: Q01DX009 (ip), vehicle: saline with Tween-80
[2] = dose: 100.0 mg/kg/injection, schedule: Q01DX009 (ip), vehicle: saline with Tween-80
[3] = dose: 12.5 mg/kg/injection, schedule: Q01DX009 (ip), vehicle: saline with Tween-80
[4] = dose: 25.0 mg/kg/injection, schedule: Q01DX009 (ip), vehicle: saline with Tween-80
[5] = dose: 80.0 micrograms/kg/injection, schedule: Q01DX009 (ip), vehicle: saline
[6] = dose: 160.0 micrograms/kg/injection, schedule: Q01DX009 (ip), vehicle: saline
[7] = dose: 200.0 mg/kg/injection, schedule: Q01DX009 (ip), vehicle: saline with Tween-80
[8] = dose: 400.0 mg/kg/injection, schedule: Q01DX009 (ip), vehicle: saline with Tween-80
[9] = dose: 200.0 mg/kg/injection, schedule: Q01DX009 (ip), vehicle: saline
[10] = dose: 200.0 mg/kg/injection, schedule: Q01DX009 (ip), vehicle: Klucel (hydroxypropylcellulose) (HPC)
[11] = dose: 400.0 mg/kg/injection, schedule: Q01DX009 (ip), vehicle: Klucel (hydroxypropylcellulose) (HPC)
[12] = dose: 100.0 mg/kg/injection, schedule: Q01DX009 (ip), vehicle: Klucel (hydroxypropylcellulose) (HPC)
[13] = dose: 100.0 mg/kg/injection, schedule: Q01DX009 (ip), vehicle: water

Structure (SMILES): C/C(=N\NC(=S)N1CC2CCC(CC2)C1)c1nccs1
- survivor count [1]: 7 of 10
- survivor count [2]: 2 of 10

Structure (SMILES): CC(Br)C(=O)c1ccc2cc(Br)c3ccccc3c2c1 (stereo unspecified)
- survivor count [3]: 10 of 10
- survivor count [4]: 10 of 10
- survivor count [1]: 10 of 10

Structure (SMILES): CN(C)CCCNc1c2ccccc2nc2cccc([N+](=O)[O-])c12
- T/C (dose: 10.0 micrograms/kg/injection, schedule: Q01DX009 (ip), vehicle: saline): 99 [8 of 10 alive], 101 (2×), 105, 108, 109 % of control
- T/C (dose: 20.0 micrograms/kg/injection, schedule: Q01DX009 (ip), vehicle: saline): 98, 104, 105, 105 [9 of 10 alive], 108 % of control (2×)
- T/C (dose: 40.0 micrograms/kg/injection, schedule: Q01DX009 (ip), vehicle: saline): 96, 96 [9 of 10 alive], 105, 106, 111, 123 % of control
- T/C [5]: 86 [9 of 10 alive], 94, 97, 98, 109 % of control
- survivor count [5]: 10 of 10
- T/C [6]: 90 and 105 % of control
- survivor count [6]: 9 of 10 and 10 of 10

Structure (SMILES): COC(=O)Nc1ccc(Cc2ccc(NC(=O)OC)cc2)cc1
- T/C [1]: 128 % of control
- T/C [2]: 143 % of control
- survivor count [7]: 10 of 10 (2×)
- survivor count [8]: 8 of 10

Structure (SMILES): COc1ccc(OCC(O)CN2CCN(c3ccc(Cl)cc3)CC2)cc1 (stereo unspecified)
- survivor count [7]: 10 of 10
- survivor count [8]: 10 of 10

Structure (SMILES): COc1cc2cc(c1Cl)N1CC(O)C(C)(O)C(=O)NC(C)C(=O)OC(CC1=O)C1(C)OC1C(C)C1CC(O)(NC(=O)O1)C(OC)/C=C\C=C(\C)C2OC (stereo unspecified)
- T/C (dose: 1.0 micrograms/kg/injection, schedule: Q01DX009 (ip), vehicle: distilled water + alcohol): 134 and 137 % of control
- T/C (dose: 2.0 micrograms/kg/injection, schedule: Q01DX009 (ip), vehicle: distilled water + alcohol): 147 % of control
- T/C (dose: 4.0 micrograms/kg/injection, schedule: Q01DX009 (ip), vehicle: distilled water + alcohol): 145 % of control
- survivor count (dose: 32.0 micrograms/kg/injection, schedule: Q01DX009 (ip), vehicle: distilled water + alcohol): 10 of 10 and 9 of 9

Structure (SMILES): O=C1c2ccccc2C(=O)c2c3c(cc(NCCNCCO)c21)N(CCO)CCN3
- survivor count (dose: 200.0 mg/kg/injection, schedule: Q01DX009 (ip), vehicle: DMSO): 8 of 10
- survivor count (dose: 400.0 mg/kg/injection, schedule: Q01DX009 (ip), vehicle: DMSO): 0 of 10

Structure (SMILES): NC(Cc1ccc(N(CCCl)Cc2ccccc2)cc1)C(=O)O (stereo unspecified)
- T/C (dose: 12.5 mg/kg/injection, schedule: Q01DX009 (ip), vehicle: distilled water + Tween-80): 147 % of control [7 of 10 alive]
- T/C (dose: 25.0 mg/kg/injection, schedule: Q01DX009 (ip), vehicle: distilled water + Tween-80): 143 % of control
- T/C (dose: 50.0 mg/kg/injection, schedule: Q01DX009 (ip), vehicle: distilled water + Tween-80): 142 % of control [9 of 10 alive]
- survivor count (dose: 100.0 mg/kg/injection, schedule: Q01DX009 (ip), vehicle: distilled water + Tween-80): 1 of 10

Structure (SMILES): Nc1nc(-c2cccc([N+](=O)[O-])c2)c(Br)c(=O)[nH]1
- survivor count [2]: 10 of 10
- survivor count [7]: 9 of 10

Structure (SMILES): c1ccc(CN2CCOC2)cc1
- survivor count [9]: 1 of 10
- survivor count (dose: 400.0 mg/kg/injection, schedule: Q01DX009 (ip), vehicle: saline): 0 of 10

Structure (SMILES): O=C(CCl)NC(Cc1ccccc1)C(=O)O (stereo unspecified)
- survivor count [8]: 9 of 10

Structure (SMILES): Cc1cc([NH-])c([NH-])cc1C.[Cl][Pt+2][Cl]
- T/C (dose: 2.5 mg/kg/injection, schedule: Q01DX009 (ip), vehicle: saline with Tween-80): 135 % of control
- T/C (dose: 5.0 mg/kg/injection, schedule: Q01DX009 (ip), vehicle: saline with Tween-80): 143 % of control
- survivor count (dose: 20.0 mg/kg/injection, schedule: Q01DX009 (ip), vehicle: saline with Tween-80): 10 of 10

Structure (SMILES): O=C1c2ccccc2CCC1(Br)Br
- survivor count (dose: 5.0 mg/kg/injection, schedule: Q01DX009 (ip), vehicle: Klucel (hydroxypropylcellulose) (HPC)): 7 of 7

Structure (SMILES): CC(C)CC(NC(=O)OCC1c2ccccc2-c2ccccc21)C(=O)O (stereo unspecified)
- T/C (dose: 50.0 mg/kg/injection, schedule: Q01DX009 (ip), vehicle: Klucel (hydroxypropylcellulose) (HPC)): 135 % of control
- survivor count [10]: 9 of 10
- survivor count [11]: 0 of 10

Structure (SMILES): COc1cccc2c1C(=O)c1c(O)c3c(c(O)c1C2=O)C[C@@](O)(C(=O)CO)C[C@@H]3OC1CC(NC(=O)C(N)CC(C)C)C(O)C(C)O1 (stereo partly specified)
- survivor count (dose: 100.0 mg/kg/injection, schedule: Q01DX001 (ip), vehicle: saline): 8 of 10
- survivor count (dose: 200.0 mg/kg/injection, schedule: Q01DX001 (ip), vehicle: saline): 2 of 10

Structure (SMILES): O=C(CCCN1CCC(C(O)c2ccc(F)cc2)CC1)c1ccc(F)cc1 (stereo unspecified)
- survivor count [4]: 6 of 10

Structure (SMILES): O=C(NC1CCCCC1)OCc1c(COC(=O)NC2CCCCC2)c(-c2ccc(Cl)c(Cl)c2)n2c1CCC2
- T/C [3]: 135 % of control
- survivor count [8]: 10 of 10

Structure (SMILES): O=C1C=C(Nc2ccc(O)cc2)c2ccccc2C1=O
- survivor count (dose: 40.0 mg/kg/injection, schedule: Q01DX009 (ip), vehicle: saline): 2 of 10

Structure (SMILES): CC(Br)C(=O)NC(Cc1ccccc1)C(=O)O (stereo unspecified)
- survivor count [2]: 10 of 10
- survivor count [7]: 10 of 10
- survivor count [8]: 10 of 10

Structure (SMILES): C=CC(=O)N1CN(C(=O)C=C)CN(C(=O)C=C)C1
- survivor count [4]: 0 of 10

Structure (SMILES): Cc1cc2c(cc1C)C(=O)c1c(O)c3c(c(O)c1C2=O)C[C@@](O)(C(=O)CO)C[C@@H]3OC1CC(N)C(O)C(C)O1 (stereo partly specified)
- T/C (dose: 1.25 mg/kg/injection, schedule: Q01DX001 (ip), vehicle: water): 145 % of control
- survivor count (dose: 40.0 mg/kg/injection, schedule: Q01DX001 (ip), vehicle: water): 3 of 10 and 4 of 10
- survivor count (dose: 80.0 mg/kg/injection, schedule: Q01DX001 (ip), vehicle: water): 0 of 10

Structure (SMILES): CC(=O)/C(=C\c1ccc(Cl)c(Cl)c1)C(=O)CCN(C)C
- survivor count (dose: 100.0 mg/kg/injection, schedule: Q01DX009 (ip), vehicle: saline): 8 of 10
- survivor count [9]: 0 of 10

Structure (SMILES): CCCC(NC(=O)OCc1ccccc1)C(=O)NCC(=O)O (stereo unspecified) (HELM PEPTIDE1{[O=C(OCc1ccccc1)[*:2]].[CCCC(N[*:1])C(=O)[*:2]].G}$$$$V2.0)
- survivor count [12]: 10 of 10
- survivor count [10]: 10 of 10
- survivor count [11]: 10 of 10

Structure (SMILES): O=C1CN(CCN2CC(=O)N(CN3CCOCC3)C(=O)C2)CC(=O)N1CN1CCOCC1
- T/C (dose: 50.0 mg/kg/injection, schedule: Q01DX009 (ip), vehicle: water): 131 % of control
- T/C [13]: 140 and 145 % of control
- survivor count [13]: 10 of 10
- survivor count (dose: 200.0 mg/kg/injection, schedule: Q01DX009 (ip), vehicle: water): 4 of 10 and 8 of 10
- survivor count (dose: 400.0 mg/kg/injection, schedule: Q01DX009 (ip), vehicle: water): 0 of 10

Structure (SMILES): CC(=O)Nc1c2sscc-2n(C)c1=O
- survivor count (dose: 1.56 mg/kg/injection, schedule: Q01DX009 (ip), vehicle: saline): 9 of 10
- survivor count (dose: 3.13 mg/kg/injection, schedule: Q01DX009 (ip), vehicle: saline with Tween-80): 9 of 10
- survivor count (dose: 6.25 mg/kg/injection, schedule: Q01DX009 (ip), vehicle: saline with Tween-80): 0 of 10
- survivor count [3]: 0 of 10
- survivor count [4]: 0 of 10

Structure (SMILES): CC(=O)NC(CCc1ccc(Cl)c(Cl)c1)c1cccc(O)c(=O)c1 (stereo unspecified)
- survivor count [12]: 10 of 10

Structure (SMILES): O=C1N=C(Oc2ccccc2)SC1=O
- survivor count [7]: 8 of 10
- survivor count [8]: 0 of 10

Reference: PubChem BioAssay AID200 (DTP/NCI, 2004)
